Literature values as cited in US20210387990A1, “METHOD FOR PRODUCING DIMETHOXYBENZENE COMPOUND” (TAIHO PHARMACEUTICAL CO., LTD., priority 2018, published 2021).

Assays:
[1] = reported in PTL 4 to 8; cited from earlier work
[2] = test system: fibroblast growth factor receptor (FGFR); settings: reported in PTL 4 to 8; cited from earlier work

## C=CC(=O)N1CC[C@H](n2nc(C#Cc3cc(OC)cc(OC)c3)c3c(N)ncnc32)C1 [compound A, (S)-1-(3-(4-amino-3-((3,5-dimethoxyphenyl)ethynyl)-1H-pyrazolo[3,4-d]pyrimidin-1-yl)pyrrolidin-1-yl)-2-propen-1-one]
[1]
  antitumor activity: exhibiting antitumor activity
[2]
  inhibitory activity on the fibroblast growth factor receptor (FGFR): excellent inhibitory activity
